# In all, about 53,000 sequences went through this assay and about 3,700 (7%) were called active.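 Rule for the calls: active = gene knockdowns whose robust z-score for IL-1 alpha signal is at least 2 or at most -2, so actives lie on both sides; inactive = the rest.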 Some of the results follow.
# Assay: Components of the Cytosolic LPS Sensing Pathway: Gene Identification via Genome-wide siRNA Screen;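 note: robust z of the log signal after scaling to non-targeting control siRNA wells of the plate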
# Settings: RAW264.7 macrophages, IL-1a HTRF, actives lie on both sides, screened at 100 nM (by protocol), cells primed 5 h with Pam3CSK4 first
# Outline: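 Supernatant IL-1a by HTRF from RAW264.7 cells primed with Pam3CSK4 (5 hours) and transfected with LipidA (24 hour) after 48h siRNA knockdown at 100 nM; cell viability checked with CellTiter-Glo.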
row,Sequence,z-score
1,GGCCUGGAGAAAAAACUUATT against Sfpq,inactive: 0.913
2,CCAUUUGAAGAGUAUUCCCTT against Lrrc2,inactive: 0.0362
3,CCCAGCUCACGUAUUUAUUTT against Pgf,inactive: 0.173
4,GGAAAGACUGCCUAUUCUGTT against Plin2,inactive: 0.515
5,CGAGAAAAACAACUCCUUUTT against Foxj3,inactive: -0.0817
6,GGGUCAGUUCAUAUGCCUCTT against Laptm5,inactive: 0.569
7,GGCAUGAGCUAUCAGGACUTT against Efcab6,inactive: 1.37
8,CCACGAGUAGUAAAAAAUATT against AI504432,inactive: -0.654
9,CCGUGAGGAUUUCAAGCGATT against P2ry6,inactive: 0.00646
10,GGUGUAUGAAUCUGUGCUGTT against Cldn5,inactive: -0.647
11,GCGAAGUCAAGCCUACUUUTT against B3gat1,inactive: 0.343
12,CCUUAGACCUAACAAACAATT against Rab23,inactive: -0.353
13,GGAGGAUAUAAAAAAGAAGTT against L2hgdh,inactive: 0.00317
14,GGAGAUGAACAAGGACCUATT against Apoa1,inactive: 0.717
15,GGUUACAGUGACACAGCCUTT against Slc16a8,inactive: -1.98
16,AUCUUUCAGUCACACGACCTT against A730085E03Rik,inactive: -0.942
17,GGAUAUUAACUAUGGGUUUTT against Tlr2,inactive: 0.605
18,GGUCCUAAAUUUCUACCAATT against Dnase1l1,inactive: -0.15
19,CGGAGUCAUACUUUUUCGATT against Trim12c,inactive: 0.0182
20,CGUGCAGAUACCACUUCACTT against Podn,inactive: -0.457
21,GGUGUGUUAUCGAUUUUACTT against Fut2,inactive: -0.0965
22,GGCUCUUACAUAAACUCUATT against Tecta,inactive: 0.987

row,Sequence,z-score
1,GCACAAACCCUCGAACUUGTT against Nkx6-2,inactive: 1.55
2,GGCAUGUUGAUGGGAAUUUTT against Srp9,inactive: 0.536
3,GGUGCUGAAGAUGUGUUGATT against Phospho1,inactive: 0.564
4,GGGCCUCCUUCUCAUCAUUTT against Scarf2,inactive: 0.9
5,GGUCCAUGGGUAAGAGGAUTT against Vmn1r43,inactive: 1.2
6,GGUGAAGUAUUUGACUAUUTT against Mark3,inactive: 0.281
7,CGUGCACUUAGAAAACCCGTT against Garnl3,inactive: -1.4
8,CCGUUUUUCAACGACGAGUTT against Fcna,inactive: 0.337
9,GCUACAGACUGAACAAUGATT against Rbm17,active: -2.08
10,CCGUUACUACAAAUUCUAUTT against Zcchc8,inactive: -0.48
11,GGCAACACCAUCACCGAGATT against Nsmce3,inactive: -0.0349
12,CCAUAUUUGAAGAAGUCCATT against Espl1,inactive: -0.325
13,CUAUUUGGUAGCCUAACUUTT against Acsl1,inactive: -0.413
14,GGCAAAUAUUCAGUUUGGATT against Scarb2,inactive: -0.00406
15,GGCUCUAUCCACCAGUAAUTT against Cyp4a14,inactive: -0.601
16,GCCAAGUUCAUUGGUGCUGTT against Atp5g1,inactive: -1.12
17,GGAGAGUGAAGUGAAAAGCTT against Dhrs1,inactive: -0.351
18,CCUUAGCUAAAUUUACUGGTT against Bche,inactive: 0.528
19,GGGUGAAAUACUUCUUUGATT against Cxcl15,inactive: -0.0783
20,GGUGAUUAAGAAAGAGGAUTT against Exosc8,inactive: 1.56
21,GCUCCAUUUCAGUCAUCGATT against Klrc1,inactive: -1.05
22,CCAUAAGAAAGGAGACUAGTT against Il33,inactive: -0.85

# 5 entries drawn at random from the list so far:
row,Sequence,z-score
16,GCCAAGUUCAUUGGUGCUGTT against Atp5g1,inactive: -1.12
15,GGCUCUAUCCACCAGUAAUTT against Cyp4a14,inactive: -0.601
3,GGUGCUGAAGAUGUGUUGATT against Phospho1,inactive: 0.564
7,CGUGCACUUAGAAAACCCGTT against Garnl3,inactive: -1.4
20,GGUGAUUAAGAAAGAGGAUTT against Exosc8,inactive: 1.56

# Continued.

row,Sequence,z-score
1,GGCCAAGAAGGUGUGGUACTT against Zmat5,inactive: -1.72
2,GCUCGUUCUGAAGAUAAGUTT against Isg20l2,inactive: -0.191
3,GGCAGUGUUGACCAACAUGTT against Map3k21,inactive: 0.427
4,GCGCAUCCUAUUCCAGCACTT against Pctp,inactive: -0.59
5,CCAAGACCAUCCAAUUCAUTT against Il6,inactive: 0.0458
6,GCCAUUCUAGGAACUCUGATT against Thrap3,inactive: -1.3
7,GCAAAGUACCCACCUUUGUTT against Pitpna,active: 2.06
8,GGACGCGGGAAAAAUGUUCTT against Hnrnpab,inactive: 1.37
9,GGUGGACACAUAUAGUCCCTT against Col27a1,inactive: 1.5
10,GGAGUUAAGCUAGAGAACUTT against Arsj,inactive: -0.648
11,GGGAUACUCCAAGUUCCAUTT against Muc4,active: 2.85
12,CCACAUCUCGCAAACACGATT against Ankrd34a,inactive: -1.76
13,GCCCGGAGAACAUGAUUAUTT against Tead4,inactive: 1.11
14,GGAGAAAUGUGAUGUACAATT against Mob3a,inactive: 1.54
15,GGGAAUAUCACAGGUGCCATT against Axl,inactive: -0.737
16,GGAACAUCACAGAAGCUACTT against Olfr141,inactive: -0.519
17,CGGAAUGUAGGACACGAAUTT against Ltb,inactive: -0.267
18,GCCUCUCUAUGUGCACCACTT against Vmn1r5,inactive: -1.26
19,GGGAAGUCCAAAUAACGGATT against Zfp184,inactive: 0.136
20,GCAGCAUAGAGACUAAAUCTT against Usp17la,inactive: 0.604
21,UCAACUGCUUAGAGCAUGUTT against Tmem259,inactive: 0.653
22,GCUAGAUGCUACGAGAUUGTT against Tipin,inactive: 0.305

row,Sequence,z-score
1,GGUGGACAUGCUGAAGUUGTT against Naga,inactive: -0.84
2,GUCUUUCCCUAAAAACAGCTT against Vmn1r47,inactive: -1.28
3,GGCUUCCUAUCUGAUUACUTT against Acsl4,inactive: 0.498
4,GCUAUACGUACAAUGGCAATT against Prrg2,inactive: -1.7
5,CCGGUAUUACAACAAGUACTT against Atp5j2,inactive: 1.01
6,GUUGAUGAUAGAUCGUCAATT against Fbxw24,inactive: 0.358
7,GCAUGUGAUGCUACGUAUATT against Fmr1,inactive: -0.742
8,GCUCAUUGGAUGUUGCUGATT against Elf1,inactive: -0.069
9,UAUCGUCCACAACUACUCATT against Epn1,inactive: 1.14
10,CCACUACUUUCCUACAAAUTT against Stard8,inactive: 0.181
11,GGCUCAGUGAGUUUCAGAATT against Snx25,active: 3.66
12,GGAAGGACUUAAAUGAUGCTT against Rnf187,inactive: -1.18
13,GCUGAUGUGAACUCAUCAUTT against Atp5md,inactive: -0.173
14,GGAUAUCAACUCUUGCUUUTT against Gmcl1,inactive: 1.26
15,CCAUCUUGGGUUCUGGUCATT against Zc3h4,inactive: -0.204
16,CGAGUUAGUUUUUCUGGGCTT against Tctex1d4,inactive: 0.997
17,CCCAAUAACAUCUUAAGAUTT against Lyn,inactive: -0.254
18,GCCCAACCCAUCAUAGAUCTT against Puf60,inactive: 1.6
19,GAAUGUUCCUCAUGUCGUCTT against Olfr65,inactive: -0.452
20,GGCAUGAUGUUCAUGGAUATT against Nup62,active: -2.04
21,GCCAUCAUCUUUGUUUAGUTT against Gm4952,inactive: -0.684
22,GUCACCAGACUUGUGUGGATT against Svs3b,inactive: -0.726

row,Sequence,z-score
1,GGCAUUUUAGUAAUAAGCATT against Mkln1,inactive: -1.84
2,AACACGGCUCUAGCCAAUCTT against Ypel4,inactive: -1.25
3,GGAAGUUGACUCCAUUUCCTT against Gpr143,inactive: 1.22
4,GGAACGAAUGAAAAGACUUTT against Tpp2,inactive: 0.35
5,GGACAAUCAGGAAUCAUAUTT against Recql,inactive: -1.94
6,GGUACACAAACAAGUAUUCTT against Eif3d,inactive: 1.29
7,GGAGCCUCCAUAGAAACCATT against Klk1b9,inactive: -0.863
8,GGAGAAGUAUGGAGAGAUUTT against U2af1l4,inactive: 0.47
9,GGAAGUCCAGGGAUACAUGTT against Erbb2,inactive: -1.31
10,GCAGUUGGGCUCCUAUGAUTT against Mrps16,inactive: -0.482
11,GGCCUCUACUUCUUUGAAUTT against Cmtm6,inactive: -1.19
12,CCCAAUGCAUCUCUGCUCATT against Hepacam2,inactive: -0.203
13,GGUGAUUCUGGAUAAAUACTT against Tmprss4,inactive: -0.94
14,CCACAGCAAGAUGUGUAUGTT against Rnf125,inactive: -1.68
15,GGAAAUGACUUGUGAUGAUTT against Pik3ap1,inactive: -0.653
16,CCCACAGGUUCAAGAACCGTT against Usf3,inactive: 0.608
17,GGCUUCCACGUAAUUGUCCTT against Six3os1,inactive: 0.649
18,GGAGCUGAGGAGAAAGACATT against Rdh16f2,inactive: 1.3
19,UUAUUCUCACUGGUUUGUATT against Olfr746,inactive: -0.655
